Results: the supplement of paper PMC10470496
Counter-ions that a name gives are not always drawn. Some of the results follow. Repeats are few or missing, and single values can be far off.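 The three strains are clinical Candida auris isolates from the CDC resistance isolate bank, from clades III, IV and I, grown in RPMI-1640 at 35°C. Growth is background-corrected OD600 relative to vehicle-only wells on the same plate; a hit meant over 50% inhibition in at least two strains plus a plate-corrected B-score above 0.1.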

The molecules below were run on C. auris AR-386 (assay: growth relative to vehicle control (OD600 ratio) (fraction); higher = less inhibition). Details: 10 µM; 24 h.
`CCOc1cc2ncc(C#N)c(Nc3ccc(OCc4ccccn4)c(Cl)c3)c2cc1NC(=O)/C=C/CN(C)C` [Neratinib (HKI-272)] was tested, and the growth was 0.74. With `CC(=O)Oc1ccccc1C(=O)O` [Aspirin] the growth was 0.94. `Cc1ccnc2c1NC(=O)c1cccnc1N2C1CC1` [Nevirapine] gave a growth of 1.13. Work on `O=C(O)c1ccc(-n2nc(-c3ccccc3O)nc2-c2ccccc2O)cc1` [Deferasirox] yielded a growth of 0.71. Molecule `CC(C(=O)O)c1ccc(C(=O)c2cccs2)cc1` (centres undefined) [Suprofen] has a growth of 0.93. For `NC(=O)N1c2ccccc2C=Cc2ccccc21` [Carbamazepine], the growth was 1.26. `NC(=O)c1cccc2cn(-c3ccc([C@@H]4CCCNC4)cc3)nc12` [Niraparib (MK-4827)] showed a growth of 1.33. For `COc1cc2nc(N(C)CCCNC(=O)C3CCCO3)nc(N)c2cc1OC` (centres undefined) [Alfuzosin HCl], the growth was 1.09. Molecule `CCn1cc(C(=O)O)c(=O)c2cc(F)c(N3CCNCC3)cc21` [Norfloxacin] has a growth of 0.92. Molecule `COc1nc(C)cnc1NS(=O)(=O)c1cccnc1-c1ccc(-c2nnco2)cc1` [Zibotentan (ZD4054)] has a growth of 1.09. For `Cc1nc2n(c(=O)c1CCN1CCC(c3noc4cc(F)ccc34)CC1)CCCC2` [Risperidone], the growth was 0.78. `O=C1O[C@H]([C@@H](O)CO)C(O)=C1O` [Vitamin C] was tested, and the growth was 0.7. `CC(=O)Oc1cc2c(s1)CCN(C(C(=O)C1CC1)c1ccccc1F)C2` (centres undefined) [Prasugrel Hydrochloride] showed a growth of 0.69. `CN(C)[C@@H](CCOc1cccc2ccccc12)c1ccccc1` [Dapoxetine HCl] gave a growth of 1.08.
